Reference: paper PMC4230841
These are yes or no findings as the source states them, for the method shown. In cells and extracts the contact can be indirect. Some binding calls cover weakened binding; strength is not graded here. Sequences can lack the tags named with a protein.

Chains of the proteins cited; added tags and fusions are not shown.
UniProt Q94899: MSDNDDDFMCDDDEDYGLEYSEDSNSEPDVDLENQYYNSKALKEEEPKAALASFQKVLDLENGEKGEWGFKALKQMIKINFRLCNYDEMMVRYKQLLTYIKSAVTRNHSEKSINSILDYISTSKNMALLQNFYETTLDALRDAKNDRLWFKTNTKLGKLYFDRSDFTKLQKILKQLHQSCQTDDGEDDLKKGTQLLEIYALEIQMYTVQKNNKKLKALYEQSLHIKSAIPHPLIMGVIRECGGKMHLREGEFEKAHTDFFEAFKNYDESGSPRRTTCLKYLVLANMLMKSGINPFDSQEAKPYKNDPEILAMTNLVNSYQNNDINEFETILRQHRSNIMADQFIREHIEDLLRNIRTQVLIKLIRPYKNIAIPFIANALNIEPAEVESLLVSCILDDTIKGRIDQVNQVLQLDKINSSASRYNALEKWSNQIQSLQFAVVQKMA
UniProt Q9V345: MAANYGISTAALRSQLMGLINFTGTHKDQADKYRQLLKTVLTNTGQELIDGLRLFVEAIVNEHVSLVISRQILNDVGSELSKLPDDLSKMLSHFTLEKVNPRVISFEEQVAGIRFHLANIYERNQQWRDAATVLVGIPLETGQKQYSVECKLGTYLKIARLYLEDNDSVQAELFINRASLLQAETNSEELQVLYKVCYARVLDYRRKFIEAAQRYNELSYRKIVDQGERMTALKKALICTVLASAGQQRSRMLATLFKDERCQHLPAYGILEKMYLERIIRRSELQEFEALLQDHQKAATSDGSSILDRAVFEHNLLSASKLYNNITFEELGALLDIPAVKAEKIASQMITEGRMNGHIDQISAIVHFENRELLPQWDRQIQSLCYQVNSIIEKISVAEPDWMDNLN
UniProt Q9XZ58: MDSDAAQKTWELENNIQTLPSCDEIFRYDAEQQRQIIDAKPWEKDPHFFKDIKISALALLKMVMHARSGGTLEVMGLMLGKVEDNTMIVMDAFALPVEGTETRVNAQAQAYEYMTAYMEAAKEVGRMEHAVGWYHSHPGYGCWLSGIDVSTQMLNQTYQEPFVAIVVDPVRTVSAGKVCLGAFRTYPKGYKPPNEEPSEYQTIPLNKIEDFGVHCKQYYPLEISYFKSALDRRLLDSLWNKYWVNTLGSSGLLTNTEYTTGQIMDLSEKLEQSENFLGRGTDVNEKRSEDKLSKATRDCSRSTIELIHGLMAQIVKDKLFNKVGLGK

Key:
Test in all cases: co-IP; S2 cells co-transfected with one Flag-tagged protein and Myc-tagged EcRA or EcRB1; lysed in mRIPA buffer (50 mM Tris-HCl pH 7.8, 150 mM NaCl, 5 mM EDTA, 0.5% Triton X-100, 0.5% NP-40); ANTI-FLAG M2 Affinity Gel overnight at 4°C; western blot with anti-Flag and anti-c-Myc
Flag-USP (Drosophila) = target: T1, Flag-USP (Drosophila) (UniProt P20153)
T1 sequence: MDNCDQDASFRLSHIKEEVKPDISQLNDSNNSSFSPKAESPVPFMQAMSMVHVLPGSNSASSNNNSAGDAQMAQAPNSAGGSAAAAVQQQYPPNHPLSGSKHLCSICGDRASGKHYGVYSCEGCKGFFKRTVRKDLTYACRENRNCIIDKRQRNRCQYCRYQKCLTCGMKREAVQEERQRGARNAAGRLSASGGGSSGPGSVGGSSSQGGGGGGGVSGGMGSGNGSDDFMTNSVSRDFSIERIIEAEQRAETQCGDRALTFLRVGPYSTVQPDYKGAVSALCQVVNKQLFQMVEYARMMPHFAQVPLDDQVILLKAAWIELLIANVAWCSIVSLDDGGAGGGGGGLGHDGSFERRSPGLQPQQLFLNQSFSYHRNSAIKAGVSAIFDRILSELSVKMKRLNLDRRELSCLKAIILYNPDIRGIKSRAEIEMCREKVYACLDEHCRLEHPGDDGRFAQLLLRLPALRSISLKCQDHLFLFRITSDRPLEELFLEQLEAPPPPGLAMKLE

[1] = target: Flag-tagged CSN2 (Drosophila) (UniProt Q94899)
[2] = target: Flag-tagged CSN4 (Drosophila) (UniProt Q9V345)
[3] = target: Flag-tagged CSN5 (Drosophila) (UniProt Q9XZ58)

Measured: binding

B1: Myc-tagged EcRB1 (receptor, UniProt P34021-1 1-878)
chain: MKRRWSNNGGFMRLPEESSSEVTSSSNGLVLPSGVNMSPSSLDSHDYCDQDLWLCGNESGSFGGSNGHGLSQQQQSVITLAMHGCSSTLPAQTTIIPINGNANGNGGSTNGQYVPGATNLGALANGMLNGGFNGMQQQIQNGHGLINSTTPSTPTTPLHLQQNLGGAGGGGIGGMGILHHANGTPNGLIGVVGGGGGVGLGVGGGGVGGLGMQHTPRSDSVNSISSGRDDLSPSSSLNGYSANESCDAKKSKKGPAPRVQEELCLVCGDRASGYHYNALTCEGCKGFFRRSVTKSAVYCCKFGRACEMDMYMRRKCQECRLKKCLAVGMRPECVVPENQCAMKRREKKAQKEKDKMTTSPSSQHGGNGSLASGGGQDFVKKEILDLMTCEPPQHATIPLLPDEILAKCQARNIPSLTYNQLAVIYKLIWYQDGYEQPSEEDLRRIMSQPDENESQTDVSFRHITEITILTVQLIVEFAKGLPAFTKIPQEDQITLLKACSSEVMMLRMARRYDHSSDSIFFANNRSYTRDSYKMAGMADNIEDLLHFCRQMFSMKVDNVEYALLTAIVIFSDRPGLEKAQLVEAIQSYYIDTLRIYILNRHCGDSMSLVFYAKLLSILTELRTLGNQNAEMCFSLKLKNRKLPKFLEEIWDVHAIPPSVQSHLQITQEENERLERAERMRASVGGAITAGIDCDSASTSAAAAAAQHQPQPQPQPQPSSLTQNDSQHQTQPQLQPQLPPQLQGQLQPQLQPQLQTQLQPQIQPQPQLLPVSAPVPASVTAPGSLSAVSTSSEYMGGSAAIGPITPATTSSITAAVTASSTTSAVPMGNGVGVGVGVGGNVSMYANAQTAMALMGVALHSHQEQLIGGVAVKSEHSTTA
binds: all assays above

B2: Myc-tagged EcRA (receptor, UniProt P34021-2 1-849)
chain: MLTTSGQQQSKQKLSTLPSHILLQQQLAASAGPSSSVSLSPSSSAALTLHVASANGGARETTSAAAVKDKLRPTPTAIKIEPMPDVISVGTVAGGSSVATVVAPAATTTSNKPNSTAAPSTSAAAANGHLVLVPNKRPRLDVTEDWMSTPSPGSVPSSAPPLSPSPGSQNHSYNMSNGYASPMSAGSYDPYSPTGKTGRDDLSPSSSLNGYSANESCDAKKSKKGPAPRVQEELCLVCGDRASGYHYNALTCEGCKGFFRRSVTKSAVYCCKFGRACEMDMYMRRKCQECRLKKCLAVGMRPECVVPENQCAMKRREKKAQKEKDKMTTSPSSQHGGNGSLASGGGQDFVKKEILDLMTCEPPQHATIPLLPDEILAKCQARNIPSLTYNQLAVIYKLIWYQDGYEQPSEEDLRRIMSQPDENESQTDVSFRHITEITILTVQLIVEFAKGLPAFTKIPQEDQITLLKACSSEVMMLRMARRYDHSSDSIFFANNRSYTRDSYKMAGMADNIEDLLHFCRQMFSMKVDNVEYALLTAIVIFSDRPGLEKAQLVEAIQSYYIDTLRIYILNRHCGDSMSLVFYAKLLSILTELRTLGNQNAEMCFSLKLKNRKLPKFLEEIWDVHAIPPSVQSHLQITQEENERLERAERMRASVGGAITAGIDCDSASTSAAAAAAQHQPQPQPQPQPSSLTQNDSQHQTQPQLQPQLPPQLQGQLQPQLQPQLQTQLQPQIQPQPQLLPVSAPVPASVTAPGSLSAVSTSSEYMGGSAAIGPITPATTSSITAAVTASSTTSAVPMGNGVGVGVGVGGNVSMYANAQTAMALMGVALHSHQEQLIGGVAVKSEHSTTA
binds: all assays above
